Percent effect of library compounds

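Assay of Toxoplasma gondii numbers, read through their beta-galactosidase reporter with a colour substrate. Compounds at 50 µM. Higher reads as fewer parasites (inferred from which compounds were picked for retests). Size under these conditions: about 18,000 compounds, about 170 of them at 50% or above in at least one test.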

Values are the deposited “Percent Effect”, in %.
The controls that fix the scale are not given in the record; negative values are as filed.
Compounds were drawn at random from those tested, without regard to their results.

CN1CCCC1CC(=O)NCc1ccc(CN)cc1 (stereo not given) read 16.61%.
NCCNS(=O)(=O)c1ccc(-c2ccccc2)cc1 read 19.82%.
COc1ccc(C)cc1CC(=O)N1CCN(C)CC1 read 93.86%.
Cn1cc(C(=O)N2CCc3ccc(Br)cc32)ccc1=O read -6.697%.
O=C(Cc1noc2ccccc12)OC1CCOC1=O (stereo not given) read 2.363%.
COc1ccc(C(C)CC(=O)N2CC[C@H](O)C2)cc1 (stereo not given in full) read 18.39%.
O=C(NCc1nc(C2CC2)no1)Nc1nncs1 read 96.18%.
CN1C(=O)c2ccccc2NC12CCOCC2 read 9.073%.
CN1CCN(c2cccc(C#N)n2)CC1CCO (stereo not given) read 2.662%.
O=C(CN1CCOCC1)Nc1ccc(Br)cc1F read -23.57%.
CCC(C(=O)NCc1nnc2n1CCC2)n1cccn1 (stereo not given) read -10.61%.
Cc1csc(C(C)CNC(=O)c2cc(CO)ccn2)n1 (stereo not given) read 6.35%.
NS(=O)(=O)c1ccc2c(c1)N(Cc1ccon1)CC2 read 6.074%.
CCn1ncnc1C(C)NC(=O)c1cccc(O)c1C (stereo not given) read 2.877%.
O=C(CNC1(CO)CCOCC1)Nc1cccc(F)c1 read -18.29%.
CCN1CCN(CC(C)CNc2ccccn2)CC1 (stereo not given) read 19.12%.
Cn1ccnc1CCNC(=O)CCN1CCCCC1=O read 16.86%.
CN1CC[C@H]2CN(C(=O)CCCn3cccn3)C[C@H]21 read -2.418%.
NC(=O)c1cc2c([nH]c1=O)CC(c1ccco1)CC2=O (stereo not given) read 13.4%.
CC(N)c1cccc(N2CCCS2(=O)=O)c1 (stereo not given) read 15.08%.
CCN1CCN(Cc2cccc(OC)c2OC)CC1 read -0.4406%.
CCCC(=O)N(C)Cc1cc2ccccc2nc1O read 7.906%.
CC(O)CC(C)(C)CNS(=O)(=O)c1c[nH]cn1 (stereo not given) read -3.897%.
CCC(=O)N1CCN(c2ccc(C(C)=O)cc2F)CC1 read -12.23%.
Cc1nnsc1CN(C)CC(=O)Nc1ccn(C)n1 read -2.522%.
CCNC(=O)COC(=O)c1cc(O)nc2ccccc12 read -6.288%.
CC1CN(c2cccc3cnccc23)CCN1 (stereo not given) read 26.98%.
CN1CCN(C(=O)Cc2ccccc2)CC1 read -15.65%.
CN(CC(=O)NCC1CCCO1)CC1CC1 (stereo not given) read -4.717%.
COCC(C)(N)c1ccccc1 (stereo not given) read 18.17%.
CCCS(=O)(=O)NCCc1noc(C)n1 read -6.87%.
O=C(CC1C=CCC1)NCCNc1ncccn1 (stereo not given) read 16.09%.
CO[C@H]1CN(C(=O)c2csc(CN(C)C)n2)CC[C@H]1N read 1.728%.
N#CCc1ccc(NC(C(N)=O)c2ccccc2)cc1 (stereo not given) read -4.475%.
CCC(C(=O)N1CCC(N)CC1)c1ccccc1 (stereo not given) read 1.647%.
COc1ncccc1C(=O)N(CC(F)F)C1CC1 read -2.233%.
Cn1ncnc1SCC(=O)N1CCCCC1 read -5.1%.
NC(CF)c1ccccc1 (stereo not given) read 6.897%.
Cc1ccnc(NC(=O)C2CC(=O)N(C3CC3)C2)c1 (stereo not given) read 8.065%.
Cc1ccc(C#N)cc1NC(=O)N1CC(N(C)C)C1 read -4.655%.
CN(C)C(=O)N1CCN(C(=O)C2CCCNC2)CC1 (stereo not given) read 0.4599%.
Cc1cc(C)nc(NC(=O)c2ccncc2)c1 read 31.27%.
CCc1nc(CN2CCCC2C(=O)N(C)C)cs1 (stereo not given) read 6.641%.

Some entries from above, unchanged:

| SMILES | percent effect |
|---|---|
| `CCN1CCN(Cc2cccc(OC)c2OC)CC1` | -0.4406% |
| `CC(O)CC(C)(C)CNS(=O)(=O)c1c[nH]cn1` (stereo not given) | -3.897% |

Measurements from “University of Dundee, Small-Polar-MMV Screening Library” (2021), ChEMBL document CHEMBL3988442.